PubChem BioAssay AID1259331, Drosophila RNAi Screening Center – 2017

Assay: 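Genes whose knock-down changes cell survival under toxic zinc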 (primary screen)
Cells: Drosophila S2R+ cells
Reagents: long dsRNA against Drosophila genes
Duration: 5 days (4 days knock-down, then 1 day zinc)
Challenge: zinc chloride at 15 mM final level for 1 day
Measurement: 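Luminescent ATP assay standing in for viability; Z score is the mean over three replicate plates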
Direction: mean Z score: higher = more ATP than other wells, better survival under zinc; ATP luminescence: higher = more ATP, more viable cells
Active means: 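a reagent is called a hit when its Z score is above 1.5 or below -1.5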
Calls: active = hit, ATP up or down; inactive = not a hit
Shown is an unselected part of about 3,100 reagents. 126 of all reagents (4.1%) count as active. 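Calls are per reagent; zinc was so toxic that few knock-downs lowered ATP further, so most hits raise ATP.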 Raw values vary from plate to plate and are shown uncorrected. A plus sign joins genes that one reagent is predicted to hit. The record does not give: the amount of reagent.

Which result is listed for wdp [DRSC28581]?
mean Z score: 0.234; ATP luminescence, replicate 1: 63947; ATP luminescence, replicate 2: 66068; Outcome: inactive

For rho-7 + CG34231 [DRSC39477], how do the results read?
mean Z score: 0.852; ATP luminescence, replicate 1: 62124; ATP luminescence, replicate 2: 60152; Outcome: inactive

What is on record for CG11147 [DRSC02129]?
mean Z score: -0.136; ATP luminescence, replicate 1: 50841; ATP luminescence, replicate 2: 35787; Outcome: inactive

Which result is listed for Ptp10D [DRSC20272]?
mean Z score: 0.696; ATP luminescence, replicate 1: 74133; ATP luminescence, replicate 2: 81110; Outcome: inactive

For Ptp10D [DRSC36634], how do the results read?
mean Z score: -0.442; ATP luminescence, replicate 1: 41753; ATP luminescence, replicate 2: 38325; Outcome: inactive

With Ptp10D [DRSC36635], what does the deposit list?
mean Z score: -0.596; ATP luminescence, replicate 1: 43059; ATP luminescence, replicate 2: 40149; Outcome: inactive

For Tim17a2 [DRSC12252], how do the results read?
mean Z score: 1.12; ATP luminescence, replicate 1: 95983; ATP luminescence, replicate 2: 80132; Outcome: inactive

With Tim17a2 [DRSC23837], what does the deposit list?
mean Z score: 2.31; ATP luminescence, replicate 1: 82276; ATP luminescence, replicate 2: 87028; Outcome: active

For PGRP-SA [DRSC19420], what was measured?
mean Z score: 0.364; ATP luminescence, replicate 1: 70905; ATP luminescence, replicate 2: 73289; Outcome: inactive

For Delta [DRSC16648], how do the results read?
mean Z score: -0.258; ATP luminescence, replicate 1: 36062; ATP luminescence, replicate 2: 62107; Outcome: inactive

What is on record for Delta [DRSC24112]?
mean Z score: 0.469; ATP luminescence, replicate 1: 62981; ATP luminescence, replicate 2: 61129; Outcome: inactive

For CG3638 [DRSC18533], what does the deposit list?
mean Z score: 1.15; ATP luminescence, replicate 1: 87182; ATP luminescence, replicate 2: 83168; Outcome: inactive

For CG3638 [DRSC25349], what was measured?
mean Z score: -0.178; ATP luminescence, replicate 1: 66805; ATP luminescence, replicate 2: 50350; Outcome: inactive

Which result is listed for Ncc69 [DRSC10412]?
mean Z score: -0.406; ATP luminescence, replicate 1: 30936; ATP luminescence, replicate 2: 27799; Outcome: inactive

What is on record for Ncc69 [DRSC23572]?
mean Z score: -0.00568; ATP luminescence, replicate 1: 56602; ATP luminescence, replicate 2: 66095; Outcome: inactive

What is on record for sNPF-R [DRSC10836]?
mean Z score: 0.578; ATP luminescence, replicate 1: 89687; ATP luminescence, replicate 2: 70990; Outcome: inactive

For PIG-C [DRSC08241], how do the results read?
mean Z score: 0.139; ATP luminescence, replicate 1: 81098; ATP luminescence, replicate 2: 63873; Outcome: inactive

Which result is listed for Spg7 [DRSC18469]?
mean Z score: -0.318; ATP luminescence, replicate 1: 63427; ATP luminescence, replicate 2: 58077; Outcome: inactive

Which result is listed for Spg7 [DRSC39600]?
mean Z score: -0.202; ATP luminescence, replicate 1: 58454; ATP luminescence, replicate 2: 56828; Outcome: inactive

How did the screen score Prestin [DRSC10507]?
mean Z score: -0.291; ATP luminescence, replicate 1: 71136; ATP luminescence, replicate 2: 56379; Outcome: inactive

With Oatp74D [DRSC09491], what does the deposit list?
mean Z score: -0.541; ATP luminescence, replicate 1: 56328; ATP luminescence, replicate 2: 57832; Outcome: inactive

For Oatp74D [DRSC10883], what does the deposit list?
mean Z score: -0.0648; ATP luminescence, replicate 1: 34313; ATP luminescence, replicate 2: 28125; Outcome: inactive

How did the screen score VAChT [DRSC13311]?
mean Z score: 1.3; ATP luminescence, replicate 1: 60152; ATP luminescence, replicate 2: 50909; Outcome: inactive

How did the screen score VAChT [DRSC23986]?
mean Z score: 0.00316; ATP luminescence, replicate 1: 72071; ATP luminescence, replicate 2: 43828; Outcome: inactive
